Laboratory results published in patent EP0366451A2, “The use of oxidized polyamines, especially NN'-Bis-(3-propionaldehyde)-1-4-diaminobutane (sperminedialdehyde) as immunosuppressive agents” (ORTHO PHARMACEUTICAL CORPORATION, priority 1988, dated 1990).
At least one compound was matched to its structure with a doubt left.

Legend:
[1] = tested on: Alkaline phosphatase; test: Alkaline phosphatase inhibition (unrelated pathway); assay type: biochemical; details: grade symbols, key not given
[2] = tested on: cytosolic ALDH; test: NAD-linked cytosolic ALDH assay, L1210/CPA cells; assay type: biochemical, Murine; details: SDA (1.0 mM) as substrate; pretreated with inhibitor 5 min at 37°C; read-out: Inhibition (IC₅₀)
Method: Cultured murine leukemic cells and livers (excised from mice immediately after cervical dislocation) were homogenized in 3 volumes of ice-cold 1.15% KCl and 1 mM EDTA. The homogenate was centrifuged at 100,000 g for 45 min and the resulting supernatant was used to measure cytosolic ALDH activity. For particulate ALDH assay, the pellet (and homogenate for total ALDH) was resuspended in homogenizing buffer and treated with 0.25% Triton X-100 for 30 min at 4°C. The solubilized preparations were centrifuged at 48,000 g for 30 min and the supernatants were drawn off for ALDH determinations.
ALDH activity was measured by monitoring the reduction of NAD or NADp for 5-6 min at […] at 37°C in DU70 spectrophotometer (Beckman). The assay mixture contained 50 mM potassium phosphate buffer, pH 7.4, 2.0 mM NAD (or NADP) and 1.0 mM EDTA. The reaction was started by adding the substrate (SDA or other aldehyde) to the prewarmed (5 min at 37°C) assay mixture containing enzyme preparation. Pyrazole (0.1 mM) was added particularly for liver enzyme, to inhibit alcohol dehydrogenase. The apparent Km and maximum velocity (Vmax) values were calculated using a Lineweaver-Burk plot based on the estimation of the slope by regression analysis. Enzyme activity was expressed as mU (nmoles/min) per mg of protein. Protein contents were determined by the Bradford method, using bovine serum albumin as the standard.

Compound	Alkaline phosphatase [1]	IC50 [2] [µM]
CCNCCCNCCCCNCCCNCC [Bis (ethyl) Spermine, bis (ethyl) spermine]	-	
CCN(CC)C(=S)SSC(=S)N(CC)CC [Disulfiram]		4.3
